This note sets out measurements from paper PMC5133986.

Protein sequences, listed by entry. Tags and fused reporters are not part of them. Residues count along the entry.
UniProt Q63604, residues 32-821: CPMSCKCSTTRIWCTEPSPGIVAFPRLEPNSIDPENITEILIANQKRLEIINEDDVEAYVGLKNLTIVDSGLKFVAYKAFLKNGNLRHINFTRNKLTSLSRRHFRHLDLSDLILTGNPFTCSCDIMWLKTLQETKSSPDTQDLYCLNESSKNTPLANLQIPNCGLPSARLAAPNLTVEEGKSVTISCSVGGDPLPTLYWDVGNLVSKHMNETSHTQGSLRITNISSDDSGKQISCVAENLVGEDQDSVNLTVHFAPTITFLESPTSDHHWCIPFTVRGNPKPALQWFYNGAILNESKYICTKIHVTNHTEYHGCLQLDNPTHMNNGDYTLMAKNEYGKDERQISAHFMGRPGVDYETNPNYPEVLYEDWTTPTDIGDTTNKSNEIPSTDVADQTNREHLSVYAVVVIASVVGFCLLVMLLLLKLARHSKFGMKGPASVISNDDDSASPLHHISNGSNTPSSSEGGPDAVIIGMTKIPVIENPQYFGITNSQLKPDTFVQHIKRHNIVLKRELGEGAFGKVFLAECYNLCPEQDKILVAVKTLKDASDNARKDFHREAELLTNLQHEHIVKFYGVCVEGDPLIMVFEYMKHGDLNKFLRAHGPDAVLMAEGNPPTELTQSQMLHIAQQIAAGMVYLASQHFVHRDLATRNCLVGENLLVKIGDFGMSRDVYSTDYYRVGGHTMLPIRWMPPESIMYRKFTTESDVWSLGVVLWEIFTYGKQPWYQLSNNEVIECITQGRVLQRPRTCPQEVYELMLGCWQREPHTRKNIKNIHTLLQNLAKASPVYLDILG
UniProt Q9R0C9: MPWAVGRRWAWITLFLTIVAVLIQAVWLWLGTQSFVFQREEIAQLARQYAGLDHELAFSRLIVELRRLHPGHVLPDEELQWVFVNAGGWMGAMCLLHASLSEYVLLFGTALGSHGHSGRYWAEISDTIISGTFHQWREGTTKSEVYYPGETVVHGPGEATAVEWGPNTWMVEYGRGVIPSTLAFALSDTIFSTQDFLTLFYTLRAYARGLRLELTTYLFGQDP

No constants are given. Whether binding was seen depends on the method and setting. Binding seen in cells or lysates may run through a third protein. Some results given as binding are weak or reduced against the parent protein; the word gives no strength.

In this experiment the target is tropomyosin receptor kinase B (rat (endogenous in cultured E18 rat hippocampal neurons)) (UniProt Q63604). Put plainly: co-IP; endogenous proteins; lysates of cultured hippocampal neurons treated with saline or cocaine (10 uM); 600 ug protein incubated with a Sig-1 R or TrkB antibody overnight at 4 °C, protein A/G beads 1.5 h at 4 °C; western blotting with a Sig-1 R or TrkB antibody.

In the case of “sigma-1 receptor (from UniProt Q9R0C9 1-223)”, the binding result is on record as “binds”.
